Assay results from US10905735B2 (priority 2016, dated 2021).
HELM strings list residues between dots; [ac] is acetyl, [am] amide, other brackets name non-standard units.

Experiment: general procedure: Fmoc solid-phase peptide synthesis; H-Cys(Trt)-2-Chlorotrityl Resin (MRK); Rink Amide-AM Resin, 0.45-0.55 mmol/g (MRG); DCC/HOBt (MRK); HBTU/DIPEA (MRG, lauric acid coupling)
Settings: whole synthesis, scale of the general procedure 0.6 mmol (MRK), 2 mmol (MRG)

## PEPTIDE1{C.Q.H.W.W.H.W.Y.C}$PEPTIDE1,PEPTIDE1,1:R3-9:R3$$$V2.0
  final HPLC purity: greater than 99%
